# Article PMC7862700
# Sequences of proteins named here, by UniProt entry; tags and fusion partners are left off. A change or cut given only in a name is not applied to a line headed by its entry.
# UniProt Q9Y603: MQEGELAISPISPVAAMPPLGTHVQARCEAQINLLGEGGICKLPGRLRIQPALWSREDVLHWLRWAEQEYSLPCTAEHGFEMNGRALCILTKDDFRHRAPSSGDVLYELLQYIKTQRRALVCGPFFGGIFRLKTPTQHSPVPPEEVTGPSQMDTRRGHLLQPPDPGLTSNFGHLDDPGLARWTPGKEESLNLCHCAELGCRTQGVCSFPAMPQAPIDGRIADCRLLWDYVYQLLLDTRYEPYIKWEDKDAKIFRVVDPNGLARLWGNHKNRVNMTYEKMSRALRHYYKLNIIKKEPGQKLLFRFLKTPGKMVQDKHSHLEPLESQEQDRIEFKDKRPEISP
# UniProt P41212: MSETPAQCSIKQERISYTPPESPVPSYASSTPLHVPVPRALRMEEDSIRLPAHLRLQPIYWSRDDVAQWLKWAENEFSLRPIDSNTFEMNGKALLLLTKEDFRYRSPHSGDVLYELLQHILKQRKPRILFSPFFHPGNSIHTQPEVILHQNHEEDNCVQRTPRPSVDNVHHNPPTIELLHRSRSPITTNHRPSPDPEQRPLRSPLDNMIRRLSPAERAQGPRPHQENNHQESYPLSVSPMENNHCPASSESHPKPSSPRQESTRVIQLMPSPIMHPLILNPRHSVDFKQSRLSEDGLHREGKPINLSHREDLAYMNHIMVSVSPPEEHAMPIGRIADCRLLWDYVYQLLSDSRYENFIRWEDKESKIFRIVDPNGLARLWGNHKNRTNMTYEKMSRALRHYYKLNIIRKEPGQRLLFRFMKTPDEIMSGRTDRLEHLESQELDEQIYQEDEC
# The entries are a selection whose mix differs from that of the whole data set. At the low end of the ranking, values are background and their order means little.
# Experiments:
# Experiment in all cases: DAPPL (digital affinity profiling via proximity ligation, sequencing)
# Details in all cases: 10 mM Tris-HCl pH 7.5, 50 mM NaCl, 1 mM DTT, 4% glycerol, room temperature, 30 min; GST-TFs on glutathione beads, 16-mer random dsDNA library, 0.1% …; high values mean tight binding; double strand, one strand shown; scale: fold enrichment (6-mer frequency, TF over GST control)
# ELF3 = target: T1, ELF3 (UniProt P78545)
# T1 sequence: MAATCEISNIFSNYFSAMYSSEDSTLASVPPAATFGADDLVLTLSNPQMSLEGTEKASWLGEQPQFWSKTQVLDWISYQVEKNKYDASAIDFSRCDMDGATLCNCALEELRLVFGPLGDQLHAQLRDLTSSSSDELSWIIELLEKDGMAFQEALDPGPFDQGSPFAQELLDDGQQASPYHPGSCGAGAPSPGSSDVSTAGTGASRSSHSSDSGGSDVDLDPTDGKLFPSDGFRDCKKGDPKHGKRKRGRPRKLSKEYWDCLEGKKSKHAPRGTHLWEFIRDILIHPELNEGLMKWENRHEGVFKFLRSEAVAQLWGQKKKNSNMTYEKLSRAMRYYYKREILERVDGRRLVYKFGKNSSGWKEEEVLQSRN
# ETV7 = ETV7 (UniProt Q9Y603)
# ETV6 = ETV6 (UniProt P41212)
Sequence,binding signal (ELF3),binding signal (ETV7),binding signal (ETV6)
ACGGAG,0.328,0.393,0.356
CCCGAG,0.949,0.794,0.792
CCGGGA,0.479,0.512,0.593
CCACGG,0.895,0.859,0.842
ACCGGG,0.458,0.545,0.524
AGCCAT,0.961,0.883,0.858
GGCGGA,0.377,0.42,0.394
TTCGTG,0.878,0.989,0.938
ATGTCG,0.701,0.623,0.544
GCAGTA,0.954,0.851,0.92
AGAGTG,0.61,0.801,0.641
GGGTAG,0.744,0.741,0.629
CAGGTA,0.796,0.74,0.814
AGCGTG,0.426,0.394,0.354
GGTAGC,0.888,0.852,0.765
ACGCAT,0.859,0.746,0.786
TAGGTG,0.875,0.901,0.823
AGTGAT,0.82,0.827,0.963
GGGTCG,0.556,0.611,0.61
GGACGG,0.452,0.534,0.512
CAGACA,0.685,0.854,0.833
CAGTCC,0.625,0.671,0.578
TGAGAG,0.579,0.608,0.587
TACAGT,0.829,0.833,0.91
AGGAGT,0.393,0.463,0.372
GATGAG,0.819,0.884,0.845
CGGCCA,0.81,0.75,0.742
TATCGG,0.847,0.83,0.778
TCCAGG,0.927,0.845,0.878
CAACGT,0.689,0.819,0.908

# A second format for some results above.
Sequence | binding signal (ELF3) | binding signal (ETV7) | binding signal (ETV6)
GCAGTA | 0.954 | 0.851 | 0.92
GGTAGC | 0.888 | 0.852 | 0.765
ACGCAT | 0.859 | 0.746 | 0.786
AGTGAT | 0.82 | 0.827 | 0.963
GGACGG | 0.452 | 0.534 | 0.512
